Results are given in words; binding and its absence hold for the method and conditions named. Binding calls can cover weak binding; strength is not graded here.
Molecular target: α2-Macroglobulin
Test: ELISA; coated glycoprotein, biotin-labeled lectin

B1: Aleuria aurantia lectin (protein, UniProt P18891 2-313, looked up)
chain: PTEFLYTSKIAAISWAATGGRQQRVYFQDLNGKIREAQRGGDNPWTGGSSQNVIGEAKLFSPLAAVTWKSAQGIQIRVYCVNKDNILSEFVYDGSKWITGQLGSVGVKVGSNSKLAALQWGGSESAPPNIRVYYQKSNGSGSSIHEYVWSGKWTAGASFGSTVPGTGIGATAIGPGRLRIYYQATDNKIREHCWDSNSWYVGGFSASASAGVSIAAISWGSTPNIRVYWQKGREELYEAAYGGSWNTPGQIKDASRPTPSLPDTFIAANSSGNIDISVFFQASGVSLQQWQWISGKGWSIGAVVPTGTPAGW
modifications: biotin label (site not stated)
binding: binds

From patent US20120244563A1
